Laboratory results reported in the supplement of paper PMC10849652.
The list shows a part of the results.

Amino acid sequences for entries named in this document (tags omitted). A change or cut given only in a name is not applied to a line headed by its entry.
UniProt Q3V6T2: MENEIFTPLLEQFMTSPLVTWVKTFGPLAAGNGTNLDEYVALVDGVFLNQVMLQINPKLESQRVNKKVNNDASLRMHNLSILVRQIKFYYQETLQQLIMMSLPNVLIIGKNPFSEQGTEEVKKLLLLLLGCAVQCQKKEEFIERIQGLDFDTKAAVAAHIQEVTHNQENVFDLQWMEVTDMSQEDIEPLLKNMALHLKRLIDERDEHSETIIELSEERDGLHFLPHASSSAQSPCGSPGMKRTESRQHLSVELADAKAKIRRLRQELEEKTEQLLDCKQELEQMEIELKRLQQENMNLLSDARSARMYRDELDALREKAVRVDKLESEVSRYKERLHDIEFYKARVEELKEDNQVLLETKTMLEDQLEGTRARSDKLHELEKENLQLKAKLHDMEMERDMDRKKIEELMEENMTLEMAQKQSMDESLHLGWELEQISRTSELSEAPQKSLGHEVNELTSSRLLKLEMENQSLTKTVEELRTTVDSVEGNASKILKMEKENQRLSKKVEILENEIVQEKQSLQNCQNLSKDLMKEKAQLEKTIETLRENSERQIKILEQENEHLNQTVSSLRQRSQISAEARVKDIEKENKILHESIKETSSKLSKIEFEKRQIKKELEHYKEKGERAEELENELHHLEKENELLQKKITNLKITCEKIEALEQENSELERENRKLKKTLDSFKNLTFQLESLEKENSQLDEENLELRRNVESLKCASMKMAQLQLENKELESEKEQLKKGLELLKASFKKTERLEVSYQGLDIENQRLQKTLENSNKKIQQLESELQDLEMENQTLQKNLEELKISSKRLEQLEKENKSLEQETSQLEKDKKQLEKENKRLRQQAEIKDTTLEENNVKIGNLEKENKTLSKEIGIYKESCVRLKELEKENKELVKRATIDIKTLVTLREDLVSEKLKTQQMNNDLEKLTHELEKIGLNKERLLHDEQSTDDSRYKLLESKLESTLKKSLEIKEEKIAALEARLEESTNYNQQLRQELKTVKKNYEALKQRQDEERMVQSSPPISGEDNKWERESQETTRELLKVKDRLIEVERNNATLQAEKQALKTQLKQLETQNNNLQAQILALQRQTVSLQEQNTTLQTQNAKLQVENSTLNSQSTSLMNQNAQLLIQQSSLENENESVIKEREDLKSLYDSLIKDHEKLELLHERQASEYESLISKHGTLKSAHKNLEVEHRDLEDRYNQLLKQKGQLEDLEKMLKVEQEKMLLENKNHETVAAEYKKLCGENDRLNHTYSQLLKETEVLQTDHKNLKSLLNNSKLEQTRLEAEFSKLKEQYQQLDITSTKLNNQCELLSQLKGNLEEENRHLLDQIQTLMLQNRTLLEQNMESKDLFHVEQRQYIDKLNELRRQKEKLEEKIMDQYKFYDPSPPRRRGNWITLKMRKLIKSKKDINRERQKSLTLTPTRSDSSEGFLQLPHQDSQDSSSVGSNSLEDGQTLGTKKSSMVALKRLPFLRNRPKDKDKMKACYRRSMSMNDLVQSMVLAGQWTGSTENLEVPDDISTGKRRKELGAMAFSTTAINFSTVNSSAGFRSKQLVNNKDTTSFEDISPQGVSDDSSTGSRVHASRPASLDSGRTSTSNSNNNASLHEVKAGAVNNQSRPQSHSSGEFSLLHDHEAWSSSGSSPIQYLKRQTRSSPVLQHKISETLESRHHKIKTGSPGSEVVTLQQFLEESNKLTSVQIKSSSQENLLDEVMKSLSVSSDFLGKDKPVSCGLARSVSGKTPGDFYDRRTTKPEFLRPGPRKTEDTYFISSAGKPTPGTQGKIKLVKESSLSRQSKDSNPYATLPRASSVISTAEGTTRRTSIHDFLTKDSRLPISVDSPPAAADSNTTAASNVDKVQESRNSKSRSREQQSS
UniProt P78371: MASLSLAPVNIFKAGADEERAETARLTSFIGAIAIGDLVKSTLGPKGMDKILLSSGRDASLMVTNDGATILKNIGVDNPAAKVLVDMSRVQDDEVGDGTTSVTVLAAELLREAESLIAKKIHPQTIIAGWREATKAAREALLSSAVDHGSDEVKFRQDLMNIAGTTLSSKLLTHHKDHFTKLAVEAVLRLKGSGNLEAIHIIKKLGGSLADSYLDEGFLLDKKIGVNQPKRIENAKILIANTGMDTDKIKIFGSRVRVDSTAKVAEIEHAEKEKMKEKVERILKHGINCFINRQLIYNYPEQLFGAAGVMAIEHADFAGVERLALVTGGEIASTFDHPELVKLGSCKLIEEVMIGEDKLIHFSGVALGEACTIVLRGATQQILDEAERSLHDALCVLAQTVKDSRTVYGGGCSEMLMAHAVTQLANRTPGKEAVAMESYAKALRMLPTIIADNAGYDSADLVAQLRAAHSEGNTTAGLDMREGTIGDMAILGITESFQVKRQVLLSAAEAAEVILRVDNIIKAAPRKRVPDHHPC
UniProt P42574: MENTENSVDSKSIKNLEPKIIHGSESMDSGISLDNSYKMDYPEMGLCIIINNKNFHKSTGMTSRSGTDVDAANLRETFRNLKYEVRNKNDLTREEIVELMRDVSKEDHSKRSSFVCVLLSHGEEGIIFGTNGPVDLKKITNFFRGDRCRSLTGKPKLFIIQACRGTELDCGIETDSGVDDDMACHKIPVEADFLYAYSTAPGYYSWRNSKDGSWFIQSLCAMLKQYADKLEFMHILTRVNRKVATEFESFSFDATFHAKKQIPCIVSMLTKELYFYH
UniProt Q6PII3: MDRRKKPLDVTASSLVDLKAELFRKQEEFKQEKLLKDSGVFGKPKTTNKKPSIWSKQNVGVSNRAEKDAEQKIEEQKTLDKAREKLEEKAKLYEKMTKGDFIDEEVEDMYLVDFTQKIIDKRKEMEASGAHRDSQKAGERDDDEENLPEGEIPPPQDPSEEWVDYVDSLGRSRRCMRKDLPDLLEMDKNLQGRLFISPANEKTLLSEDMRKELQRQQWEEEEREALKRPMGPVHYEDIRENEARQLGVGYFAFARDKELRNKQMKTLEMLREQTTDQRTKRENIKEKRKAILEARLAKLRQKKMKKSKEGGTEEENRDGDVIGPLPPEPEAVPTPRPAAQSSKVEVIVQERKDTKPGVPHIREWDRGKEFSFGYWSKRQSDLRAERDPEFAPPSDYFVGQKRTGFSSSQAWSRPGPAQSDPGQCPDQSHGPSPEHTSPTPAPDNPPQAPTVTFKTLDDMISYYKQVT
UniProt Q9GZT6: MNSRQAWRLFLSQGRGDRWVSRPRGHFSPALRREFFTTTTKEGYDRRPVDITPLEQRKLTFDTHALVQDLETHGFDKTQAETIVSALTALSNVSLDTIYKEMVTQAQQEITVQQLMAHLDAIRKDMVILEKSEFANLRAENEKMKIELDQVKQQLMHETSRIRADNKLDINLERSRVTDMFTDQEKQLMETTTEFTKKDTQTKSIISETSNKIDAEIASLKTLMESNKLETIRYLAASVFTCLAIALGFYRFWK
UniProt Q14781, whole entry, looked up: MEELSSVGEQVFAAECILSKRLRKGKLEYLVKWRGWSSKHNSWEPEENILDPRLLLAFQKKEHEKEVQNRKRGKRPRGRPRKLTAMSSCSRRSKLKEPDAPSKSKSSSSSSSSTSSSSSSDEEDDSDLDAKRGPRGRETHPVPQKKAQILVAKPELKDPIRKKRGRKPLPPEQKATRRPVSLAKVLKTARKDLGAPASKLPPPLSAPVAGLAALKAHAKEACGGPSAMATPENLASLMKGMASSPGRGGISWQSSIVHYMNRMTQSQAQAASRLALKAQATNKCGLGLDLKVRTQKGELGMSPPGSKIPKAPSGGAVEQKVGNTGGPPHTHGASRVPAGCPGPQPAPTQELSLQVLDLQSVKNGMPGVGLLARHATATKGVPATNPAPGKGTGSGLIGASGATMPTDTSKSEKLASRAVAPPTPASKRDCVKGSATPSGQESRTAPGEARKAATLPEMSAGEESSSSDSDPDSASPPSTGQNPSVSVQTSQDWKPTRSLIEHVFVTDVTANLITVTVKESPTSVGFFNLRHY
UniProt P20810: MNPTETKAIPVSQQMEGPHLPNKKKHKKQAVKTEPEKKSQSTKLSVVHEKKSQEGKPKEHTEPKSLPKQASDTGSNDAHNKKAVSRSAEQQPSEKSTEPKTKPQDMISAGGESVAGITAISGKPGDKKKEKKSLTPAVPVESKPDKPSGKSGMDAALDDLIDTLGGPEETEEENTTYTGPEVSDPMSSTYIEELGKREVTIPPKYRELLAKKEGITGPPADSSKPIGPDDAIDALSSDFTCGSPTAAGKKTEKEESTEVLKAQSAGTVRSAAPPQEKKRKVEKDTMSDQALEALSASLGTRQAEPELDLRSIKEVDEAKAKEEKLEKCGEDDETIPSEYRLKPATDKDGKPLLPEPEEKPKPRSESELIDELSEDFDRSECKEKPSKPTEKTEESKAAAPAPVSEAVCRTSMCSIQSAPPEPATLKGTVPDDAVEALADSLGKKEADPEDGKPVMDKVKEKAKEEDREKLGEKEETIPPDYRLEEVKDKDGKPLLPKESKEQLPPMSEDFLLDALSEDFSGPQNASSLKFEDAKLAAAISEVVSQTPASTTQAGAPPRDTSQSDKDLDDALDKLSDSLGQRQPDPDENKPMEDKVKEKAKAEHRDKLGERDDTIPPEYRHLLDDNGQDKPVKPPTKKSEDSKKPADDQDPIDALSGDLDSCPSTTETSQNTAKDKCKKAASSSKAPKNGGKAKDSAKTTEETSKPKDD
UniProt Q7Z6B0: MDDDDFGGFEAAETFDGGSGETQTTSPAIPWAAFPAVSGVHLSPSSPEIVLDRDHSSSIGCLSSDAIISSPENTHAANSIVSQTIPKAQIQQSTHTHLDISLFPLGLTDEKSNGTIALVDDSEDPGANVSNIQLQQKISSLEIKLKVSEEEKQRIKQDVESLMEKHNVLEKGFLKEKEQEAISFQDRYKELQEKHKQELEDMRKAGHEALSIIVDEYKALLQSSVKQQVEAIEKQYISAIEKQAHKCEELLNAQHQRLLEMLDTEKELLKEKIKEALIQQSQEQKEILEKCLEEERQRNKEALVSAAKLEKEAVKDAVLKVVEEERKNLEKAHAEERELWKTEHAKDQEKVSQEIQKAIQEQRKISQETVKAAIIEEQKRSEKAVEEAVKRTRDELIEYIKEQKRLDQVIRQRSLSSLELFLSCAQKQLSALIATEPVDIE
UniProt Q9H257: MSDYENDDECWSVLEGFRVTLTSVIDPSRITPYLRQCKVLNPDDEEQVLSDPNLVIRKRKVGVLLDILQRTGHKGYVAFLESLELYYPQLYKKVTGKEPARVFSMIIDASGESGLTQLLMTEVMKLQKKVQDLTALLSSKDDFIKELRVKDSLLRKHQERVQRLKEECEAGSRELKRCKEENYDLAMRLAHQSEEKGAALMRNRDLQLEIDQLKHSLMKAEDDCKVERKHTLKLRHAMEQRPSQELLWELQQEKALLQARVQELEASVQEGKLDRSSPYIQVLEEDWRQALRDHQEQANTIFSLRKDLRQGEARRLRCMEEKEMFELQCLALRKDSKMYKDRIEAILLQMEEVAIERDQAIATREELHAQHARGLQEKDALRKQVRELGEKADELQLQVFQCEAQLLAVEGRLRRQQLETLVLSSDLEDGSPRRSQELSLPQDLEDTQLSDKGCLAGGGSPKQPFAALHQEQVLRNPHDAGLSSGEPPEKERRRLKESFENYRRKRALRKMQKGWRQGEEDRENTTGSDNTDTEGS
UniProt P60033: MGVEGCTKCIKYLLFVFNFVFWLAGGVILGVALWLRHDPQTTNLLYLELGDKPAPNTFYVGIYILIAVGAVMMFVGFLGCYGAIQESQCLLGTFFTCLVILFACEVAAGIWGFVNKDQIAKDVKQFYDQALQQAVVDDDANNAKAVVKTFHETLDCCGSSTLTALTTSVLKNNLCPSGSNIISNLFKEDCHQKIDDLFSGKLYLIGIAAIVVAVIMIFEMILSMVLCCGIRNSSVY
UniProt P48509: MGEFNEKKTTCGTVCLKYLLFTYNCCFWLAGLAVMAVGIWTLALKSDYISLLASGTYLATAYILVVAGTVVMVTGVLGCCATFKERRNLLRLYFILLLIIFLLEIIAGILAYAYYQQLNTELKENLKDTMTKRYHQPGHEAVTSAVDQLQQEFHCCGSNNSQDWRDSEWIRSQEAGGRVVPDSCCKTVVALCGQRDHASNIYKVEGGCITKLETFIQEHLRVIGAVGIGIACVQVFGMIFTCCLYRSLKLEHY
UniProt O95067, whole entry, looked up: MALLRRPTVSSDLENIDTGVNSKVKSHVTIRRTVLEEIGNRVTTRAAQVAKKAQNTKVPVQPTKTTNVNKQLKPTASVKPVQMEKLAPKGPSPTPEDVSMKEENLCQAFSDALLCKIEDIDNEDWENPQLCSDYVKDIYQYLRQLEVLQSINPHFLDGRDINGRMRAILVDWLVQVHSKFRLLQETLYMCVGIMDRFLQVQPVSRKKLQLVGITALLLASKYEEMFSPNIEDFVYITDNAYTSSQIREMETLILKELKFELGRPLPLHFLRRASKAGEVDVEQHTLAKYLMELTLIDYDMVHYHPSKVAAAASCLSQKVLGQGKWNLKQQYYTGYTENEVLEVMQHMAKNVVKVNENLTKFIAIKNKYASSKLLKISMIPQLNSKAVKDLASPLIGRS

Legend:
Test in all cases: log2 fold change, soluble protein after heating vs DMSO (PISA); higher = thermal stabilisation; K562 lysate, 10 uM; active = over 0.2 and 3.5 SD of the protein, either way, in both replicates (recomputed)
[1] = compound: CS(=O)(=O)CCNCc1ccc(-c2ccc3ncnc(Nc4ccc(OCc5cccc(F)c5)c(Cl)c4)c3c2)o1 [lapatinib]
Outline: (§1)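 Thermal stability, expressed as log-two fold change relative to solvent controls, is given from duplicates. Crude K562 extract in PBS pH 7.4 with 1 mM MgCl2, at 1 mg/mL protein, was treated with 10 μM compound for 30 min and heated in aliquots for 3 min across 48°C-58°C. After pooling, adjustment to 0.5% NP-40 at 4°C and centrifugation at 21,000xg for 90 min, supernatant protein was measured by TMTpro 16plex LC-MS/MS with channel sums equalised.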

[2] = compound: CS(=O)(=O)N1CCN(Cc2cc3nc(-c4cccc5[nH]ncc45)nc(N4CCOCC4)c3s2)CC1 [pictilisib]
Outline: as §1

[3] = compound: C[C@@H](Oc1cc(-c2cnn(C3CCNCC3)c2)cnc1N)c1c(Cl)ccc(F)c1Cl [crizotinib]
Outline: as §1

[4] = compound: C[C@H](C1=CC=C(C=C1)C(=O)NC2=C3C=CNC3=NC=C2)N
Outline: as §1

[5] = compound: C[C@H](Nc1ncnc2nc[nH]c12)c1cc2cccc(Cl)c2c(=O)n1-c1ccccc1 [duvelisib]
Outline: as §1

[6] = compound: Cc1cc(Nc2cc(CN3CCOCC3)c3nc(C)c(Cc4ccc(Cl)cc4F)n3n2)n[nH]1 [gandotinib]
Outline: as §1

[7] = compound: Cc1cc(Nc2cc(N3CCN(C)CC3)nc(Sc3ccc(NC(=O)C4CC4)cc3)n2)n[nH]1 [tozasertib]
Outline: as §1

[8] = compound: Cc1ccc(-n2nc(C(C)(C)C)cc2NC(=O)Nc2ccc(OCCN3CCOCC3)c3ccccc23)cc1 [doramapimod]
Outline: as §1

[9] = compound: Cc1ccc(NC(=O)c2ccc(CN3CC[C@H](N(C)C)C3)c(C(F)(F)F)c2)cc1Nc1nccc(-c2cncnc2)n1 [bafetinib]
Outline: as §1

[10] = compound: Cc1cccc(CC(=O)N2CCc3c2ccc(-c2cn(C)c4ncnc(N)c24)c3F)n1
Outline: as §1

Row | Target | log2 fold change [1] | log2 fold change [2] | log2 fold change [3] | log2 fold change [4] | log2 fold change [5] | log2 fold change [6] | log2 fold change [7] | log2 fold change [8] | log2 fold change [9] | log2 fold change [10]
1 | CD320 (UniProt Q9NPF0) | inactive: 0.017 | inactive: -0.003 | inactive: 0.012 | inactive: -0.083 | inactive: 0.064 | inactive: 0.034 | inactive: 0.039 | inactive: 0.012 | inactive: 0.08 | inactive: 0.077
2 | CCDC88A (UniProt Q3V6T2) | inactive: -0.02 | inactive: -0.021 | inactive: -0.006 | inactive: -0.002 | inactive: 0.032 | inactive: -0.038 | inactive: 0.002 | inactive: 0.041 | inactive: -0.023 | inactive: 0.045
3 | CCDC9 (UniProt Q9Y3X0) | inactive: 0.034 | inactive: 0.037 | inactive: 0.019 | inactive: 0.009 | inactive: -0.011 | inactive: 0.015 | inactive: -0.029 | inactive: 0.004 | inactive: 0.008 | inactive: -0.015
4 | CCDC6 (UniProt Q16204) | inactive: 0.011 | inactive: 0.028 | inactive: 0.003 | inactive: -0.017 | inactive: -0.02 | inactive: 0.056 | inactive: -0.02 | inactive: 0.005 | inactive: 0.013 | inactive: -0.005
5 | CCT2 (UniProt P78371) | inactive: -0.011 | inactive: 0.015 | inactive: 0.026 | inactive: 0.037 | inactive: 0.006 | inactive: -0.045 | inactive: 0.004 | inactive: -0.03 | inactive: 0.024 | inactive: -0.045
6 | CCNYL1 (UniProt Q8N7R7) | inactive: 0.018 | inactive: -0.012 | inactive: -0.015 | inactive: -0.201 | inactive: -0.003 | inactive: 0.085 | inactive: 0.052 | inactive: -0.004 | inactive: 0.006 | inactive: 0.067
7 | CARS isoform 3 (UniProt P49589) | inactive: -0.006 | inactive: -0.006 | inactive: 0.019 | inactive: 0.003 | inactive: -0.015 | inactive: -0.045 | inactive: 0.014 | inactive: 0.014 | inactive: -0.008 | inactive: -0.011
8 | CCNE1 (UniProt P24864) | inactive: -0.088 | inactive: -0.139 | inactive: 0 | inactive: 0.006 | inactive: -0.026 | inactive: -0.05 | inactive: -0.089 | inactive: -0.167 | inactive: 0.039 | inactive: 0.043
9 | CCAR2 (UniProt G3V119) | inactive: -0.12 | – | – | – | – | – | – | – | – | –
10 | CCDC117 (UniProt Q8IWD4) | inactive: 0.011 | inactive: 0.016 | inactive: -0.101 | inactive: -0.005 | inactive: -0.006 | inactive: -0.003 | inactive: -0.009 | inactive: 0.041 | inactive: 0.032 | inactive: -0.02
11 | CASP3 (UniProt P42574) | inactive: 0.013 | inactive: -0.021 | inactive: 0.001 | active: 0.249 | inactive: 0.007 | inactive: -0.084 | inactive: -0.016 | inactive: 0.005 | inactive: 0.107 | inactive: -0.089
12 | CCDC85B (UniProt Q15834) | inactive: 0 | inactive: -0.042 | inactive: 0.006 | inactive: -0.016 | inactive: 0.081 | inactive: -0.032 | inactive: 0.248 | inactive: 0.098 | inactive: 0.054 | inactive: 0.011
13 | CCDC174 (UniProt Q6PII3) | inactive: 0.059 | inactive: -0.007 | inactive: 0.051 | inactive: -0.021 | inactive: -0.004 | inactive: 0.043 | inactive: -0.024 | inactive: 0.014 | inactive: 0.039 | inactive: -0.065
14 | CCDC90B (UniProt Q9GZT6) | inactive: 0.023 | inactive: -0.019 | inactive: -0.004 | inactive: 0.053 | inactive: -0.025 | inactive: -0.064 | inactive: 0.029 | inactive: -0.01 | inactive: -0.02 | inactive: -0.115
15 | CCDC59 (UniProt Q9P031) | inactive: 0.043 | inactive: -0.034 | inactive: 0.015 | inactive: -0.013 | inactive: 0.009 | inactive: 0.01 | inactive: 0.001 | inactive: 0.069 | inactive: -0.055 | inactive: -0.01
16 | CASC3 (UniProt O15234) | inactive: 0.025 | inactive: 0.002 | inactive: 0.084 | inactive: -0.042 | inactive: 0.032 | inactive: 0.033 | inactive: 0.021 | inactive: 0.007 | inactive: 0.06 | inactive: 0.033

Row | Target | log2 fold change [1] | log2 fold change [2] | log2 fold change [3] | log2 fold change [4] | log2 fold change [5] | log2 fold change [6] | log2 fold change [7] | log2 fold change [8] | log2 fold change [9] | log2 fold change [10]
17 | CBX2 (UniProt Q14781) | inactive: -0.155 | – | – | – | – | – | – | – | – | –
18 | CAST isoform 6 (UniProt P20810) | inactive: 0.031 | inactive: 0.011 | inactive: 0.028 | inactive: 0.002 | inactive: 0.014 | inactive: 0.029 | inactive: -0.011 | inactive: -0.057 | inactive: 0.031 | inactive: -0.016
19 | CCDC22 (UniProt O60826) | inactive: -0.002 | inactive: -0.017 | inactive: -0.036 | inactive: -0.014 | inactive: -0.016 | inactive: -0.056 | inactive: 0.03 | inactive: 0.023 | inactive: -0.035 | inactive: -0.005
20 | CCDC91 (UniProt Q7Z6B0) | inactive: 0.015 | inactive: -0.006 | inactive: 0.003 | inactive: 0.061 | inactive: 0.016 | inactive: -0.003 | inactive: 0.031 | inactive: -0.005 | inactive: 0.008 | inactive: -0.04
21 | CCDC51 (UniProt Q96ER9) | inactive: -0.038 | inactive: -0.055 | inactive: -0.01 | active: 0.259 | inactive: -0.034 | active: -0.217 | inactive: 0.007 | inactive: -0.053 | inactive: -0.106 | inactive: -0.232
22 | CCDC25 (UniProt Q86WR0) | inactive: -0.028 | inactive: -0.001 | inactive: -0.015 | active: 0.487 | inactive: 0.011 | inactive: -0.062 | inactive: -0.021 | inactive: 0.065 | inactive: 0.008 | inactive: -0.095
23 | CBX1 (UniProt P83916) | inactive: 0.052 | inactive: -0.006 | inactive: 0.023 | active: 0.279 | inactive: 0.03 | inactive: -0.143 | inactive: -0.05 | inactive: -0.034 | inactive: 0.025 | inactive: -0.138
24 | CARD9 (UniProt Q9H257) | inactive: -0.048 | inactive: -0.035 | inactive: -0.053 | inactive: -0.016 | inactive: -0.009 | inactive: -0.032 | inactive: 0.022 | inactive: 0.032 | inactive: -0.145 | inactive: 0.03
25 | CCDC43 (UniProt Q96MW1) | inactive: 0.012 | inactive: -0.004 | inactive: 0.027 | inactive: -0.027 | inactive: 0.007 | inactive: 0.02 | inactive: 0.024 | inactive: 0.063 | inactive: 0.008 | inactive: 0.045
26 | CD2BP2 (UniProt O95400) | inactive: 0 | inactive: -0.007 | inactive: -0.004 | inactive: 0.119 | inactive: 0.031 | inactive: -0.049 | inactive: 0.025 | inactive: -0.024 | inactive: -0.023 | inactive: -0.072
27 | CCNDBP1 (UniProt O95273) | inactive: 0.077 | inactive: -0.041 | inactive: -0.009 | inactive: 0.138 | inactive: -0.019 | inactive: -0.062 | inactive: 0.083 | inactive: 0.024 | inactive: -0.022 | inactive: -0.092
28 | CD81 (UniProt P60033) | inactive: 0.003 | inactive: 0.053 | inactive: -0.018 | inactive: -0.119 | inactive: 0.077 | inactive: 0.121 | inactive: 0.023 | inactive: -0.022 | inactive: 0.096 | inactive: 0.053
29 | CD151 (UniProt P48509) | inactive: 0.008 | inactive: -0.023 | inactive: -0.01 | inactive: -0.272 | inactive: 0.022 | inactive: 0.052 | inactive: -0.113 | inactive: -0.027 | inactive: 0.055 | inactive: 0.095
30 | CCNB2 (UniProt O95067) | inactive: -0.048 | inactive: -0.091 | inactive: -0.018 | inactive: -0.016 | inactive: 0.032 | inactive: -0.108 | inactive: 0.023 | inactive: 0.009 | inactive: -0.035 | inactive: 0.068
31 | CASP9 (UniProt P55211) | inactive: 0.003 | inactive: 0.011 | inactive: -0.047 | inactive: -0.036 | inactive: 0.036 | inactive: -0.027 | inactive: 0.017 | inactive: 0.009 | inactive: -0.069 | inactive: 0.082

Random excerpt: 2 records from the list.
Row | Target | log2 fold change [1] | log2 fold change [2] | log2 fold change [3] | log2 fold change [4] | log2 fold change [5] | log2 fold change [6] | log2 fold change [7] | log2 fold change [8] | log2 fold change [9] | log2 fold change [10]
3 | CCDC9 (UniProt Q9Y3X0) | inactive: 0.034 | inactive: 0.037 | inactive: 0.019 | inactive: 0.009 | inactive: -0.011 | inactive: 0.015 | inactive: -0.029 | inactive: 0.004 | inactive: 0.008 | inactive: -0.015
14 | CCDC90B (UniProt Q9GZT6) | inactive: 0.023 | inactive: -0.019 | inactive: -0.004 | inactive: 0.053 | inactive: -0.025 | inactive: -0.064 | inactive: 0.029 | inactive: -0.01 | inactive: -0.02 | inactive: -0.115
